# PubChem BioAssay AID652243, Drosophila RNAi Screening Center – 2013
# Test: 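Knock-downs that decrease or increase androgen receptor reporter signal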 (primary screen)
# System: Drosophila S2R+ cells
# Reagents: long dsRNA against Drosophila genes
# Timing: 72 h (48 h, then 24 h hormone)
# Challenge: synthetic androgen R1881 at 10 nM for 24 h
# Measurement: 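Firefly light from an androgen-responsive reporter and Renilla control light per well, raw and unnormalised, for each of two replicates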
# Direction: firefly reporter light: higher = more light from androgen-responsive reporter; Renilla control light: higher = more constitutive control signal (cell number, transfection)
# Active means: 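Hit when the log firefly-to-Renilla ratio dropped or increased by a fixed fold versus the mean of GFP or LacZ controls across duplicate plates; lowering cut given as 1.5 and as 3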
# Meaning of the calls: active = hit: reporter lowered or raised; inactive = no hit
# The screen tested about 24,000 reagents; this is an unselected part of those with a known target gene and a result. Over the whole deposit, 246 (1%) are marked active. 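Plates not normalised; calls are printed but the firefly/Renilla ratio behind them is not deposited; fold cut for lowering reported inconsistently.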 Raw values vary from plate to plate and are shown uncorrected. Reagents against one gene are numbered here. A plus sign joins genes that one reagent is predicted to hit. The record does not give: the amount of reagent.
predicted target,dsRNA no.,"firefly reporter light, replicate 1","firefly reporter light, replicate 2","Renilla control light, replicate 1","Renilla control light, replicate 2",Outcome
Hr83,1,36403,42722,1.12e6,9.55e5,inactive
Hr83,2,8.71e5,8.97e5,6.72e5,9.27e5,inactive
CG3149,1,95692,91776,7.14e5,5.69e5,inactive
CG3149,2,2.67e5,2.98e5,4.67e5,8.60e5,inactive
par-1,1,13542,13090,53251,86137,inactive
par-1,2,82770,96837,1.20e6,1.36e6,inactive
par-1,3,8.50e5,1.11e6,1.70e6,2.23e6,inactive
par-1,4,1.08e5,80439,1.03e6,1.20e6,inactive
par-1,5,65934,70386,8.80e5,8.46e5,inactive
par-1,6,6.52e5,5.05e5,1.83e6,1.33e6,inactive
sac,1,75623,1.13e5,2.19e6,1.80e6,inactive
sac,2,4.38e5,3.01e5,7.19e5,6.98e5,inactive
aly,1,2.03e5,2.18e5,2.42e6,2.94e6,inactive
aly,2,3.85e5,4.63e5,1.60e6,2.57e6,inactive
aly,3,4.15e5,4.98e5,1.79e6,1.41e6,inactive
CG12662,1,3.59e5,4.35e5,3.50e6,3.05e6,inactive
CAH16,1,1.93e5,1.64e5,1.98e6,2.13e6,inactive
CAH16,2,6.64e5,5.37e5,1.94e6,1.63e6,inactive
CG13038,1,2.65e5,2.99e5,2.77e6,2.88e6,inactive
Or98b,1,1.98e5,2.20e5,3.09e6,3.74e6,inactive
Or98b,2,5.35e5,4.73e5,2.19e6,2.14e6,inactive
Awh,1,1.73e5,2.49e5,1.83e6,2.93e6,inactive
CG32762,1,4.10e5,4.16e5,3.37e6,2.84e6,inactive
CG32762,2,7.46e5,7.22e5,9.81e5,1.16e6,inactive
Uhg2 + snoRNA:Me18S-G1620 + snoRNA:U14:30Ea,1,1.58e5,1.64e5,5.74e5,4.43e5,inactive
nrv2,1,1.17e5,1.37e5,2.39e5,2.02e5,inactive
nrv2,2,8.49e5,1.10e6,1.45e6,1.88e6,inactive
5-HT7,1,52837,1.31e5,6.13e5,5.99e5,inactive
5-HT7,2,9.47e5,8.49e5,1.09e6,8.82e5,inactive
nAChRalpha2,1,84480,1.14e5,3.20e5,3.15e5,inactive
nAChRalpha2,2,7.88e5,5.18e5,4.10e5,3.31e5,inactive
CG2604,1,23197,99674,1.16e6,1.59e6,inactive
CG2604,2,5.44e5,5.07e5,1.01e6,9.72e5,inactive
Hrb27C,1,3.75e5,3.98e5,9.35e5,1.60e6,inactive
Hrb27C,2,2.63e5,4.47e5,6.76e5,1.24e6,inactive
Cadps,1,9.98e5,9.25e5,2.03e6,1.43e6,inactive
Cadps,2,5.55e5,5.23e5,1.27e6,1.29e6,inactive
FucT6,1,1.01e5,79914,5.80e5,6.19e5,inactive
FucT6,2,2.84e5,3.73e5,7.86e5,8.13e5,inactive
CG14109,1,3.31e5,2.12e5,2.89e6,2.13e6,inactive
CG14109,2,6.05e5,8.14e5,6.82e5,7.97e5,inactive
Nadsyn,1,1.03e5,88273,5.51e5,5.69e5,inactive
Rh3,1,90725,92309,5.31e5,5.98e5,inactive
CG7335,1,2.36e5,2.57e5,1.86e6,2.30e6,inactive
CG7335,2,2.96e5,2.70e5,5.52e5,5.43e5,inactive
Pmm2,1,1.74e5,1.80e5,1.97e6,1.86e6,inactive
Pmm2,2,8.00e5,6.62e5,2.04e6,1.88e6,inactive
CG15712,1,1.36e5,1.15e5,2.72e6,2.72e6,inactive

Continued, starting with the last 7 of the part before.
predicted target,dsRNA no.,"firefly reporter light, replicate 1","firefly reporter light, replicate 2","Renilla control light, replicate 1","Renilla control light, replicate 2",Outcome
Nadsyn,1,1.03e5,88273,5.51e5,5.69e5,inactive
Rh3,1,90725,92309,5.31e5,5.98e5,inactive
CG7335,1,2.36e5,2.57e5,1.86e6,2.30e6,inactive
CG7335,2,2.96e5,2.70e5,5.52e5,5.43e5,inactive
Pmm2,1,1.74e5,1.80e5,1.97e6,1.86e6,inactive
Pmm2,2,8.00e5,6.62e5,2.04e6,1.88e6,inactive
CG15712,1,1.36e5,1.15e5,2.72e6,2.72e6,inactive
CG13833,1,1.46e5,1.51e5,2.70e6,2.57e6,inactive
clu,1,1.04e6,5.17e5,7.14e5,4.70e5,inactive
clu,2,3.88e5,3.97e5,1.05e6,1.29e6,inactive
CG17030,1,1.48e5,2.18e5,2.20e6,2.61e6,inactive
tio,1,1.99e5,1.15e5,1.64e6,7.37e5,inactive
Pp1-Y1,1,7.97e5,7.82e5,1.72e6,1.61e6,inactive
CG17239,1,1.09e5,1.67e5,7.61e5,8.70e5,inactive
CG17780,1,1.98e5,2.62e5,2.35e6,2.17e6,inactive
CG18536,1,1.04e5,1.01e5,1.70e6,1.70e6,inactive
CG14384,1,79767,80823,1.47e6,9.79e5,inactive
CG31327,1,1.68e5,1.66e5,3.92e5,3.60e5,inactive
CG17564,1,1.54e5,1.64e5,2.15e6,1.94e6,inactive
CG17564,2,2.83e5,2.39e5,5.09e5,5.16e5,inactive
MFS14,1,5.77e5,7.36e5,1.70e6,2.35e6,inactive
MFS14,2,3.30e5,3.32e5,6.89e5,5.60e5,inactive
AQP,1,2.55e5,2.75e5,1.56e6,1.78e6,inactive
CG8176,1,91340,91328,1.74e6,1.55e6,inactive
Pcp,1,1.81e5,2.06e5,2.05e6,1.64e6,inactive
RpS26,1,1.42e5,1.80e5,9.50e5,9.77e5,inactive
pic,1,55906,82397,4.06e5,5.02e5,inactive
Nprl2,1,1.22e5,1.09e5,6.29e5,5.26e5,inactive
mbt,1,4.08e5,4.29e5,1.80e6,2.24e6,active
mbt,2,3.73e5,5.29e5,8.61e5,7.59e5,inactive
nan,1,1.59e5,1.66e5,2.18e6,1.83e6,inactive
CG32075,1,1.32e5,1.73e5,1.30e6,1.55e6,inactive
CG32075,2,5.03e5,3.70e5,1.12e6,1.44e6,inactive
